Tests used:
[1] = target: T1, ABCG2 (Homo sapiens, UniProt Q9UNQ0); assay: inhibition of pheophorbide A and ciprofloxacin transport in ABCG2-overexpressing cells ([…] positive control); type: cell-based; parameters: wild-type ABCG2 overexpressed in K562/ABCG2 and 8226/MR20 cells
T1 sequence (Q9UNQ0 1-655): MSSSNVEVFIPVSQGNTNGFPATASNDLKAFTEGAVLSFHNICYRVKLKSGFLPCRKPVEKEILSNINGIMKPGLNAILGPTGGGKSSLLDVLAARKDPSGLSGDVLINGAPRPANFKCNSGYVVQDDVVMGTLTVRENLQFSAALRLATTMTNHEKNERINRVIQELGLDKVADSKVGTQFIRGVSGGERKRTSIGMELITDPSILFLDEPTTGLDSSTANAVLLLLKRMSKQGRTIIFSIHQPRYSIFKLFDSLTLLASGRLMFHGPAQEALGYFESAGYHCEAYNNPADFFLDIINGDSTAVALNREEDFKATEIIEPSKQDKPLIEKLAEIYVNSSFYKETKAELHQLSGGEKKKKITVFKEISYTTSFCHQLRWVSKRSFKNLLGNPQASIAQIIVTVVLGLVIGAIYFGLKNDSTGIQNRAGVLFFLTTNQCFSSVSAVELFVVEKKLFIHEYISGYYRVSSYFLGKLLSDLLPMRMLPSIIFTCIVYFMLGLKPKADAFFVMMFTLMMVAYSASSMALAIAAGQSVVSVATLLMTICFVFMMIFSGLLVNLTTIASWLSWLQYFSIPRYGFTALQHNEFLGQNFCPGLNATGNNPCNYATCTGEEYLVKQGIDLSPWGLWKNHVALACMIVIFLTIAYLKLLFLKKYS

[2] = target: T1, ABCG2

SMILES	inhibition of pheophorbide A and ciprofloxacin transport in ABCG2-overexpressing [1]	cellular accumulation by fluorescence with and without ABCG2 inhibitors [2]
COc1ccc2c3c([nH]c2c1)[C@H](C=C(C)C)N1C(=O)[C@@H]2CCCN2C(=O)[C@@H]1C3 [fumitremorgin C]	with the ABCB1 modulator PSC-833 and ABCG2 modulator fumitremorgin C (FTC) as positive controls	
O=C(O)c1cn(C2CC2)c2cc(N3CCNCC3)c(F)cc2c1=O [ciprofloxacin]		demonstrated that quizartinib increased ciprofloxacin accumulation in a concentration-dependent manner

Reference: paper PMC3743865, “The FLT3 Inhibitor Quizartinib Inhibits ABCG2 at Pharmacologically Relevant Concentrations, with Implications for Both Chemosensitization and Adverse Drug Interactions” (PLoS ONE, 2013)
